Measurements reported in US20250388687A1.
Substitutions are numbered along the chain they refer to. These are yes or no findings as the source states them, for the method shown. Some results given as binding are weak or reduced against the parent protein; the word gives no strength. For some of these results: Tags and fused reporters may be left off the sequences shown.

By UniProt entry, the sequences of proteins in these tests, tags left out. Residues count along the entry.
UniProt P32927, residues 17-443: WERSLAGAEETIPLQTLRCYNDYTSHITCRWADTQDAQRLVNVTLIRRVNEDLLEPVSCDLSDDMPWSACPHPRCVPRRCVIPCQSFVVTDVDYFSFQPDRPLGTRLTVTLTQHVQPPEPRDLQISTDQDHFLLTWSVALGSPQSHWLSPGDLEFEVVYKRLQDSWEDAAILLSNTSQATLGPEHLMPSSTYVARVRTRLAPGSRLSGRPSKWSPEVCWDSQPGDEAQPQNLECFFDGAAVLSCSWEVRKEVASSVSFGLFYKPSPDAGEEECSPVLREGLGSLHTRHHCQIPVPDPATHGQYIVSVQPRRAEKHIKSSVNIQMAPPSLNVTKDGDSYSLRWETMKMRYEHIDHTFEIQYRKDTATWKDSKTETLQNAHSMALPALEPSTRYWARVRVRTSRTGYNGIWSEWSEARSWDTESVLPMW

T1: recombinant hEPOR-Fc (human) (UniProt P19235)
T1 sequence (looked up): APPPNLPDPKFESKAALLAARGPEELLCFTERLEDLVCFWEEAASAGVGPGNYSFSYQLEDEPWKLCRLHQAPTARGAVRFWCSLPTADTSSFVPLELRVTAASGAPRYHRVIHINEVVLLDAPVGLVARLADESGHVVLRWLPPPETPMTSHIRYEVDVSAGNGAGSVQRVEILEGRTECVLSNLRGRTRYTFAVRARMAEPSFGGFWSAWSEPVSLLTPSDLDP

B1: hybridoma clone M2 (antibody, V domains shown)
VH: QVQLVESGGGLVKPGGSLRLSCAASGFTFSDSYMSWIRQAPGKGLEWVSYISNSGSYMYYADSVKGRFTISRDNAKNSLYLQMNNLRAEDTAVYYCARDKLGIGDYWGQGTLVTVSS
VL: DIQMTQSPSSLSASVGDRVTITCRASQGIRNDLGWFQQKPGKAPKRLIYAASRLQSGVPSRFSGSGSGTEFTLTISSLQPEDFATYCCLQHHTYPPTFGQGTKVEIK
B2: anti-EPOR antibody clonotype625 (antibody, V domains shown)
VH: QVQLQQWGAGLLKPSETLSLTCAVYGGSFSGYYWSWIRQPPGKGLEWIGEINHSGSTNYNPSLKSRVTISVDTSKNQFSLKLSSVTAADTAVYYCARGWGSSSWYYFDYWGQGTLVTVSS
VL: SYELTQPPSVSVSPGQTARITCSGDALPKKYAYWYQQKSGQAPVLVIYEDNKRPSGIPERFSGSSSGTMATLTISGAQVEDEADYYCYSTDSSGNHRVFGGGTKLTVL
B3: anti-EPOR antibody clonotype573 (antibody, V domains shown)
VH: EVQLVESGGGLVNPGGSLRLSCAASGFTFSNAWMSWVRQGPGRGLEWVGRIKSKSDGETIDYAAPVKGRFSFSRDDAENTLYLEMNSLKTEDTAVYYCTTEGSFNFYYFMDVWGKGTAVTVSS
VL: SHMLTQPPSVSVAPGTTARITCGGNNFGSKSVHWYQQKPGQAPVLVIYYDSDRPSGIPERFSGSNSGNTATLTISRVEAGDEADYYCQVWDSTSDHYVFGTGTKVTVL
B4: anti-EPOR antibody clonotype647 (antibody, V domains shown)
VH: QVQLQQWGAGLLKPSETLSLTCAVYGGSFSGYYWSWIRQPPGKGLEWIGEINHSGSTNYNPSLKSRVTISVDTSKNQFSLKLSSVTAADTAVYYCAGGYCSSTSCRYNWNYGGWFDPWGQGTLVTVSS
VL: QAVVTQEPSLTVSPGGTVTLTCGSSTGAVTSGHYPYWFQQKPGQAPRTLIYDTSNKHSWTPARFSGSLLGGKAALTLSGAQPEDEAEYYCLLSYSGARVFGGGTKLTVL
B5: anti-EPOR antibody clonotype612 (antibody, V domains shown)
VH: EVQLVESGGGVVRPGGSLRLSCAASGFTFDDYGMSWVRQAPGKGLEWVSGINWNGGSTGYADSVKGRFTISRDNAKNSLYLQMNSLRAEDTALYYCAREKAPAHRSSWSWYFDLWGRGTLVTVSS
VL: QSALTQPASVSGSPGQSITISCTGTSSDVGGYNYVSWYQQHPGKAPKLMIYDVSKRPSGVSNRFSGSKSGNTASLTISGLQAEDEADYYCCSYAGSSWVFGGGTKLTVL
B6: anti-EPOR antibody clonotype588 (antibody, V domains shown)
VH: EVQLVESGGGLVKPGGSLRLSCAASAFTFSNYNMNWVRQAPGKGLEWVSSISSSTSYIYYADSVKGRFTVSRDNAKNSLYLQMNSLRAEDTAVYYCARDRDDFWSGYSPYFDYWGQGTLVTVSS
VL: SSELTQDPAVSVALGQTVRITCQGDSLRSYYASWYQQKPGQAPVLVIYGKNNRPSGIPDRFSGSSSGNTASLTITGAQAEDEADYYCNSRDSSGNHWVFGGGTKLTVL
B7: anti-EPOR antibody clonotype599 (antibody, V domains shown)
VH: LVQLVESGGGVVQPGRSLRLSCAASGFTFSSYGMHWVRQAPGKGLEWVTLIWYDGSNTYYAESVKGRFTISRDNSKSTLYLHMNSLRAEDSAVYYCAGTYYYDSSGYLNYMDVWGKGTTVTVSS
VL: B6 VL with W97L
B8: anti-EPOR antibody clonotype589 (antibody, V domains shown)
VH: EVQLVESGGGLVKPGGSLRLSCAASGFTFSSYSMNWVRQAPGKGLEWVSSISSSSSYIYYADSVKGRFTISRDNAKNSLYLQMNSLRAEDTAVYYCAREKYDILTGYSPYFDYWGQGTLVTVSS
VL: B6 VL
B9: anti-EPOR antibody clonotype611 (antibody, V domains shown)
VH: QVHLQQSGPGLVKPSQTLSLTCAISGDSVSSNSAAWNWIRQSPSRGLEWLGRTYYRSKWYNDYAVSVKSRITINSDTSKNQFSLQLNSVTPEDTAVYYCSRDRLIVGASYFDLWGRGTLVTVSS
VL: B6 VL with I47F, N52K, S93N, T106S
B10: anti-EPOR antibody clonotype607 (antibody, V domains shown)
VH: EVQLVESGGGLVQPGGSLRLSCAASGFTFSTYSVKWVRQAPGKGLEWVSYISSGSSTIYYADSVKGRFTISRDNAKNSLYLQMNSLRDEDTAVYYCARDPTTIFGVVPYYYMDVWGTGTTVTVSS
VL: B6 VL with S33T, K50R, N88Y, W97L, K104N
B11: anti-EPOR antibody clonotype600 (antibody, V domains shown)
VH: QLQLQESGPGLVKPSETLSLTCTVSGGSISSSSYYWGWIRQPPGKGLEWIGSIHYSGSTYYNPSLKSRVTTSVDTSKNQFSLKLSSVTAADTAVYYCASEGPYFDYWGQGTLVTVSS
VL: B6 VL
B12: anti-EPOR antibody clonotype598 (antibody, V domains shown)
VH: EVQMVESGGGLVQPGGSLRLSCAASGFTFSSHVMSWVRQAPGKGLEWVSVISGSESSTYYADSVKGRFTISSDNSKNTLYLQMNSLRAEDTAIYYCAKRAGSGTYYRGYYFDYWGQGTLVTVSS
VL: B6 VL
B13: anti-EPOR antibody clonotype601 (antibody, V domains shown)
VH: QVQLVQSGAEVKKPGASVKVSCKASGYSFSSYGIGWVRQAPGQGLEWMGWISGYNGNTNYAQKFQGRVTMTTDTSTSTAHMEVKSLRSDDTAAYYCARAYCGGDCYYSNAFDAWGQGTMVTVSS
VL: QSALTQPASVSGSPGQSITISCTGTSSDVGGYNYVSWYQQHPGKAPKLMIYEVSNRPSGVSNRFSGSKSGNTASLTISGLQAEDEADYYCSSYTSSSTVVFGGGTKLTVL
B14: anti-EPOR antibody clonotype646 (antibody, V domains shown)
VH: QLQLQESGPGLVKPSETLSLTCTVSGGSISSSGYYWGWIRQSPGKGLEWIGSFYYSGSTYYNPSLKSRVTISVDTSKNQFSLKLSSVTAADTAVYYCARQGRITMVRGVIPFDYWGQGTLVTVSS
VL: B13 VL with V99L
B15: anti-EPOR antibody clonotype576 (antibody, V domains shown)
VH: QVQLQESGPGLVKPSETLSLTCTVSGGSISSYYWSWIRQPPGKGLEWIGHIYYSGSTNYNPSLKSRVTISVDTSKNQFSLKLSSVTAADTAVYYCARDPFYYDFSDYYYMDVWGKGTTVTVSS
VL: QSALTQPASVSGSPGQSITISCTGTSSDVGAYNYVSWYQQHPGKAPKLMIYAVSKRPSGVSYRFSGSKSGNTASLTISGLQAEDEADYYCCSYAGTISWVFGGGTKLTVL
B16: clonotype 379 (EPOR/CD131 binders, Table 8) (antibody, V domains shown)
VH: QVQLVQSGAEVKKPGASMKVSCKASGYTFITYGITWVRQAPGQGLEWMGWISAYNGNANYAQKVQDRVTMTTDTSTSTAYMELRSLRSDDTAVYYCARAPGGSCGSTNCYKWNYDPYYFDYWGQGTLVTVSS
VL: B13 VL with Q1R, Q39H, E52D, N55K, S67F, Y89F, S91C, T94A, S95G, V99L
B17: EPOR/CD131 binder, HC SEQ ID NO 1737 / LC SEQ ID NO 1873 (antibody, V domains shown)
VH: B16 VH
VL: B13 VL with Q1R, Q39H, E52D, N55K, S67F, Y89F, S91C, T94A, S95G, V99L

Each binder was assayed against soluble hetero-EPOR (EPOR-CD131-Fc) (human) (UniProt P19235+P32927) (assay: BLI (Octet), supernatant antibody captured on anti-mouse Fc biosensors, 30 nM soluble receptor Fc fusion).

binding, binds:
B1

The binders below were run against recombinant hEPOR-Fc (Sino Biological, Cat #10707-H02H) (human) (UniProt P19235) (assay: B cells of immunised ATX-GL mice stained with fluorescent hEPOR-Fc, sorted, single-cell sequenced).

binding, binds:
B2, B3, B4, B5, B6, B7, B8, B9, B10, B11, B12, B13, B14, B15

These binders were tested against recombinant hEPOR-Fc (Sino Biological, Cat #10707-H02H) (human) (UniProt P19235) (assay: B-cell sorting with labelled hEPOR-Fc and hCD131-Fc, double-positive population).

binding, binds:
B16

The binders below were run against hCD131-Fc (IME021, in house) (human) (UniProt P32927) in the same assay as above.

binding, binds:
B16

Each binder was assayed against T1, recombinant hEPOR-Fc (human) (assay: B cells sorted with labelled hEPOR-Fc and hCD131-Fc, then sequenced).

binding, binds:
B17

The binders below were run against hCD131-Fc (IME021) (human) (UniProt P32927) in the same assay as above.

binding, binds:
B17
